Among the data in patent US9598714 (dated 2017) are step yield values, retold here.

Square brackets hold non-standard residues; d marks the D form. * marks the point of attachment. Gln(Trt) = N[C@@H](CCC(=O)NC(c1ccccc1)(c1ccccc1)c1ccccc1)C(=O)O; Pbf = Cc1c(C)c(S(=O)(=O)*)c(C)c2c1OC(C)(C)C2; Boc = CC(C)(C)OC(=O)*; OtBu = CC(C)(C)O*; tBu = CC(C)(C)*

The nature of the data set: general procedure: peptide synthesis; Sieber resin (Xanthenyl linker, 0.5 mmol/gram); 2-chlorotrityl resin (1.0 mmol/gram); HBTU/HOBt/DiPEA; Alcalase-CLEA-OM for fragment condensation. The following applies: coupling step.
On to “Ac-D(OtBu)LS(tBu)K(Boc)QME(OtBu)E(OtBu)E(OtBu)A-NH2”, for which the step yield worked out at 100%.

“Ac-D(OtBu)LS(tBu)K(Boc)[Gln(Trt)]ME(OtBu)E(OtBu)E(OtBu)A-NH2” returned a step yield of 86%.

In turn, “Ac-LD(OtBu)[Gln(Trt)]S(tBu)QFVGS(tBu)R(Pbf)-NH2” returned a step yield of 86%.

For “Ac-T(tBu)S(tBu)D(OtBu)LS(tBu)K(Boc)QME(OtBu)E(OtBu)E(OtBu)A-NH2”, the step yield was 98%.

As for “Ac-Thr(tBu)-Phe-Thr(tBu)-Ser(tBu)-Asp(OtBu)-Leu-Ser(tBu)-Lys(Boc)-Gln-Met-Glu(OtBu)-Glu(OtBu)-Glu(OtBu)-Ala-NH2”, the step yield was 78%.
